These results are taken from US20040197795A1 (published 2004).

Sequences of proteins named here, by UniProt entry; tags and fusion partners are left off. Residues count along the entry.
UniProt P61823, residues 27-150: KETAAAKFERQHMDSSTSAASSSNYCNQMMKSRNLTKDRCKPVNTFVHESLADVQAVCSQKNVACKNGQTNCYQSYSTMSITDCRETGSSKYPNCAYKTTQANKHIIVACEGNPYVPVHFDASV

The target of the assay is RNase A (Ribonuclease A, Sigma R4875) (UniProt P61823). The assay is described as follows: affinity purification on RNase A resin (method of Blackburn 1979), without reducing agents.

Results are given in words; binding and its absence hold for the method and conditions named. Some results given as binding are weak or reduced against the parent protein; the word gives no strength.

B1: "RNasin Plus"-brand RNase inhibitor (recombinant rat-derived RNase inhibitor protein, Promega Pt # N261) (other, UniProt P29315 1-456, looked up)
chain: MSLDIQCEQLSDARWTELLPLIQQYQVVRLDDCGLTEVRCKDIRSAIQANPALTELSLRTNELGDAGVGLVLQGLQNPTCKIQKLSLQNCSLTEAGCGVLPDVLRSLSTLRELHLNDNPLGDEGLKLLCEGLRDPQCRLEKLQLEYCNLTATSCEPLASVLRVKPDFKELVLSNNDFHEAGIHTLCQGLKDSACQLESLKLENCGITSANCKDLCDVVASKASLQELDLGSNKLGNTGIAALCSGLLLPSCRLRTLWLWDCDVTAEGCKDLCRVLRAKQSLKELSLAGNELKDEGAQLLCESLLEPGCQLESLWVKTCSLTAASCPHFCSVLTKNRSLFELQMSSNPLGDSGVVELCKALGYPDTVLRVLWLGDCDVTDSGCSSLATVLLANRSLRELDLSNNCMGDNGVLQLLESLKQPSCILQQLVLYDIYWTDEVEDQLRALEEERPSLRIIS
Take B1: the binding result was “binds”.
